Measurements reported in PubChem BioAssay AID1259254 (NCATS, 2017)
Shown is a random part of about 59,000 reagents tested. About 1,550 of them (2.6%) count as active. 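G2 share is only a proxy for re-replication; each gene was hit by three separate siRNAs, and active genes were retested.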 The numbers tell different reagents against one gene apart. Not all columns of the deposit are shown. Not given: the amount of reagent.

- Aim: 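Genome-wide screen for genes that prevent DNA re-replication in cancer cells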 (primary screen)
- Cells: human HCT116 colorectal cancer cells
- Reagent: single siRNA against human genes
- Duration: 3 days
- Measurement: 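Nuclei stained with Hoechst and imaged; cell-cycle phase assigned by DNA content; G2 share scaled per plate, non-targeting siRNA 0%, GMNN siRNA 100%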
- Direction: G2 robust z-score and G2 cells, % of GMNN control: higher = more G2 cells, more excess DNA replication
- Active means: 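An siRNA counts as active if its G2 robust z-score lies at least 5 MADs above the screen median; here such calls match roughly 38% of GMNN control or more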

The first 4 records as a preview:
| gene symbol | reagent | G2 robust z-score | G2 cells, % of GMNN control | outcome |
| --- | --- | --- | --- | --- |
| CTXN1 | 1 | 0.352 | 5.44 | inactive |
| CTXN1 | 2 | -0.293 | 0.904 | inactive |
| CTXN1 | 3 | -0.68 | -1.82 | inactive |
| CCDC138 | 1 | 2.31 | 19.2 | inactive |

The listing, from the start:
| gene symbol | reagent | G2 robust z-score | G2 cells, % of GMNN control | outcome |
| --- | --- | --- | --- | --- |
| CTXN1 | 1 | 0.352 | 5.44 | inactive |
| CTXN1 | 2 | -0.293 | 0.904 | inactive |
| CTXN1 | 3 | -0.68 | -1.82 | inactive |
| CCDC138 | 1 | 2.31 | 19.2 | inactive |
| CCDC138 | 2 | 0.0321 | 3.19 | inactive |
| CCDC138 | 3 | 1.32 | 12.3 | inactive |
| SGCG | 1 | -0.505 | -0.586 | inactive |
| SGCG | 2 | 3.45 | 27.3 | inactive |
| SGCG | 3 | -0.397 | 0.175 | inactive |
| UBN2 | 1 | 1.58 | 14.1 | inactive |
| UBN2 | 2 | 0.601 | 7.19 | inactive |
| UBN2 | 3 | 1.65 | 14.6 | inactive |
| ADAMTS18 | 1 | 0.0377 | 3.23 | inactive |
| ADAMTS18 | 2 | -0.00278 | 2.95 | inactive |
| ADAMTS18 | 3 | 0.17 | 4.16 | inactive |
| SFTA3 | 1 | -0.808 | -2.72 | inactive |
| SFTA3 | 2 | 0.574 | 7.01 | inactive |
| SFTA3 | 3 | 0.835 | 8.84 | inactive |
| RPL32P36 | 1 | 1.84 | 15.9 | inactive |
| RPL32P36 | 2 | 2.15 | 18.1 | inactive |
| RPL32P36 | 3 | 1.84 | 15.9 | inactive |
| SLC45A1 | 1 | 0.71 | 7.97 | inactive |
| SLC45A1 | 2 | -0.147 | 1.93 | inactive |
| SLC45A1 | 3 | 0.128 | 3.86 | inactive |
| PEAK3 | 1 | -0.137 | 2 | inactive |
| PEAK3 | 2 | 4.64 | 35.6 | inactive |
| PEAK3 | 3 | 2.44 | 20.2 | inactive |
| RBP7 | 1 | -0.192 | 1.61 | inactive |
| RBP7 | 2 | -1.07 | -4.53 | inactive |
| RBP7 | 3 | -0.182 | 1.69 | inactive |
| NR5A2 | 1 | 1.12 | 10.9 | inactive |
| NR5A2 | 2 | -1.02 | -4.2 | inactive |
| NR5A2 | 3 | 4.52 | 34.8 | inactive |
| GET1 | 1 | 0.705 | 7.93 | inactive |
| GET1 | 2 | -0.299 | 0.865 | inactive |
| GET1 | 3 | -0.923 | -3.52 | inactive |
| ZBTB34 | 1 | 2.95 | 23.7 | inactive |
| ZBTB34 | 2 | 2.12 | 17.9 | inactive |
| ZBTB34 | 3 | -0.624 | -1.42 | inactive |
| DEF8 | 1 | 0.112 | 3.76 | inactive |
| DEF8 | 2 | 4.07 | 31.6 | inactive |
| DEF8 | 3 | -0.241 | 1.27 | inactive |
| HSD17B1 | 1 | 0.375 | 5.61 | inactive |
| HSD17B1 | 2 | -1.51 | -7.67 | inactive |
| HSD17B1 | 3 | 3.59 | 28.3 | inactive |
| IDUA | 1 | 3.66 | 28.7 | inactive |
| IDUA | 2 | -1.08 | -4.62 | inactive |
| IDUA | 3 | -0.639 | -1.53 | inactive |
| ARHGAP44 | 1 | 0.0341 | 3.21 | inactive |
| ARHGAP44 | 2 | -0.753 | -2.33 | inactive |
| ARHGAP44 | 3 | -1.2 | -5.44 | inactive |
| CLEC4A | 1 | 1.03 | 10.2 | inactive |
| CLEC4A | 2 | 0.271 | 4.87 | inactive |
| CLEC4A | 3 | 7.43 | 55.3 | active |
| MAPK8IP3 | 1 | -0.963 | -3.81 | inactive |
| MAPK8IP3 | 2 | -0.0763 | 2.43 | inactive |
| MAPK8IP3 | 3 | -0.882 | -3.24 | inactive |
| OLR1 | 1 | -0.938 | -3.63 | inactive |
| OLR1 | 2 | -1.3 | -6.2 | inactive |
| OLR1 | 3 | -0.0295 | 2.76 | inactive |
| LGR5 | 1 | 4.26 | 33 | inactive |
| LGR5 | 2 | -0.438 | -0.117 | inactive |
| LGR5 | 3 | 3.47 | 27.4 | inactive |
| GLIS2 | 1 | -0.212 | 1.48 | inactive |
| GLIS2 | 2 | 1.64 | 14.5 | inactive |
| GLIS2 | 3 | 0.396 | 5.75 | inactive |
| AGO2 | 1 | -1.17 | -5.27 | inactive |
| AGO2 | 2 | -0.585 | -1.15 | inactive |
| AGO2 | 3 | -0.907 | -3.41 | inactive |
